In this assay the target is T1, Nr2f2 (nuclear receptor subfamily 2, group F, member 2), HA-tagged (UniProt P24468).
T1 sequence: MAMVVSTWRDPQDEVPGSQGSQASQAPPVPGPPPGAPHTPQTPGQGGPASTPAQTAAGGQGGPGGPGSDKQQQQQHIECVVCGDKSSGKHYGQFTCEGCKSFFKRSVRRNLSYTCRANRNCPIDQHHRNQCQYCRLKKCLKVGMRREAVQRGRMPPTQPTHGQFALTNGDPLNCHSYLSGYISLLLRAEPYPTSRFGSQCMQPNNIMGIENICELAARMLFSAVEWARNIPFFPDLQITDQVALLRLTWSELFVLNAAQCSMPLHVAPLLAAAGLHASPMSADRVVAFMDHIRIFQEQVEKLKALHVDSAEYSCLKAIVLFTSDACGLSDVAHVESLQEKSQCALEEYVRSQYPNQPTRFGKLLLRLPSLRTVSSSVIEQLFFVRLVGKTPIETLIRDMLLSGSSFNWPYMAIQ
Put plainly: co-IP; reciprocal co-IP of Flag-Fbxo21 and HA-Nr2f2 transfected into MGC-803 cells; RIPA lysates, 1 ug primary antibody overnight at 4 C, protein A+G beads 1 h, washed three times with PBS, western blot. (In western blotting, separated proteins are transferred to a membrane and probed.)

Results are given in words; binding and its absence hold for the method and conditions named. In cells and extracts the contact can be indirect. Some entries that bind do so weakly or less than the wild type. Where a sequence is shown, tags or fusion partners need not be part of it.

This note sets out measurements from article PMC7847638.

B1: F-box protein 21 (Fbxo21), Flag-tagged (protein, UniProt O94952 1-628)
chain: MAAAAVDSAMEVVPALAEEAAPEVAGLSCLVNLPGEVLEYILCCGSLTAADIGRVSSTCRRLRELCQSSGKVWKEQFRVRWPSLMKHYSPTDYVNWLEEYKVRQKAGLEARKIVASFSKRFFSEHVPCNGFSDIENLEGPEIFFEDELVCILNMEGRKALTWKYYAKKILYYLRQQKILNNLKAFLQQPDDYESYLEGAVYIDQYCNPLSDISLKDIQAQIDSIVELVCKTLRGINSRHPSLAFKAGESSMIMEIELQSQVLDAMNYVLYDQLKFKGNRMDYYNALNLYMHQVLIRRTGIPISMSLLYLTIARQLGVPLEPVNFPSHFLLRWCQGAEGATLDIFDYIYIDAFGKGKQLTVKECEYLIGQHVTAALYGVVNVKKVLQRMVGNLLSLGKREGIDQSYQLLRDSLDLYLAMYPDQVQLLLLQARLYFHLGIWPEKSFCLVLKVLDILQHIQTLDPGQHGAVGYLVQHTLEHIERKKEEVGVEVKLRSDEKHRDVCYSIGLIMKHKRYGYNCVIYGWDPTCMMGHEWIRNMNVHSLPHGHHQPFYNVLVEDGSCRYAAQENLEYNVEPQEISHPDVGRYFSEFTGTHYIPNAELEIRYPEDLEFVYETVQNIYSAKKENIDE
For B1, the binding result is recorded as “binds”.
